# From the supplement of paper PMC8728848
# The other results are listed elsewhere or left out.
# B1: Awp1 (Candida glabrata) (protein)
# chain: MSLITIFAFLIKATLVLSLDILTPTTLTGDQTFNEDVSVVSSLTLNDGSQYLFNNLLQIAPSSASVTANALAAVSVFTFSLPPSSSLSNSGTLIISNSNTGPSTEQHIVITPNVMANTGTITLSLAHTNTDSSSTLIIDPVTFYNTGTINYESIGSETNDPSLTGNILSIGSSGRTLQNLGTINLNAANSYYLLGTITENSGSINVQKGFLYVNALDFIGNTINLSTTTALAFISPVSQVVRVRGVFFGNIIASVGSSGTFSYNTQTGILTVTTNGVYSYDIGCGYNPALMSGQQETLSFQGNPYDTFLVLVNQPIPSDLTCAAVSSSITPSSSVEPSSSVVPSSSVEPSSSVEPSSSVEPSSSVEPSSSVEPSSSVEPSSSVEPSSSVEPSSSVEPSSSVEPSSSVEPSSSVEPSSSVEPSSSVEPSSSVEPSSSVEPSSSVEPSSSVEPSSSVEPSSLIVPSSSVEPSSSVLPSSSVVPSSSVEPSTPPIPSSSVEPSSSVVPSSPAVPSSSVEPSTPPIPSSSVVSASVFDTSSTLPSSPSVPPSSVSPSTISTPSSSAAPSSFCPTCVSSGTPPAPSSSAIVPTSSAGGGNGGDNREPGAAGQPGAAGQPGAAGQPGAAGQPGAAGQPGAAGQPGAAGQPGAAGQPGAAGQPGAAGQPGAGFGVGSEQPTPGAGAGSGSADGNQSGTGSGTGNGQQGSGQAGSGQAGSGQEGSGQAGSGQAGSGQAGSGQAGSGQAGLDNTASGQSEGGQASAMDGDQSGRDGQSNSGSLLQPNAQQGTGSGTGSDIGADQASGESPGQIGDAQPGSGTDQSSGRHSLAAEARTSQSHSLAADARTRSTTRQTSVIAPDTAPGTASGTAPGTAPGTAVVTTFHGCGTVNHKGMINILLALALLVLL
# Columns and labels:
# Assay in all cases: glycan array binding signal (z-score within array); higher = stronger binding
# Conditions in all cases: glycan notation: IUPAC condensed, linker removed
# [1] = target: Fuc(a1-2)Gal6S(b1-3)GlcNAc6S
# Summary of the method: (§1)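 Glycan array binding is given as a within-array Z-score, which can be read as non-binding when negative. The arrays, 3228 of them, came from the Consortium for Functional Glycomics database and were retained only where the protein sequence was available. Z-scores were averaged across arrays of the same protein sequence at different concentrations or buffers and across linkers.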
# Fuc(a1-2)Gal6S(b1-4)Glc = target: Fuc(a1-2)Gal6S(b1-4)Glc
# Summary of the method: as §1
# [2] = target: Fuc(a1-2)Gal6S(b1-4)Glc6S
# Summary of the method: as §1
# Fuc(a1-2)[Gal(a1-3)]Gal = target: Fuc(a1-2)[Gal(a1-3)]Gal
# Summary of the method: as §1
# [3] = target: Fuc(a1-2)[Gal(a1-3)]Gal(b1-3)GalNAc
# Summary of the method: as §1
# [4] = target: Fuc(a1-2)[Gal(a1-3)]Gal(b1-3)GalNAc(b1-3)Gal(a1-4)Gal(b1-4)Glc
# Summary of the method: as §1
# [5] = target: Fuc(a1-2)[Gal(a1-3)]Gal(b1-3)GlcNAc
# Summary of the method: as §1
# [6] = target: Fuc(a1-2)[Gal(a1-3)]Gal(b1-3)GlcNAc(b1-2)Man(a1-3)[Fuc(a1-2)[Gal(a1-3)]Gal(b1-3)GlcNAc(b1-2)Man(a1-6)]Man(b1-4)GlcNAc(b1-4)GlcNAc
# Summary of the method: as §1
# [7] = target: Fuc(a1-2)[Gal(a1-3)]Gal(b1-3)GlcNAc(b1-2)Man(a1-3)[Fuc(a1-2)[Gal(a1-3)]Gal(b1-3)GlcNAc(b1-2)Man(a1-6)]Man(b1-4)GlcNAc(b1-4)[Fuc(a1-6)]GlcNAc
# Summary of the method: as §1
# [8] = target: Fuc(a1-2)[Gal(a1-3)]Gal(b1-3)GlcNAc(b1-3)GalNAc
# Summary of the method: as §1
# [9] = target: Fuc(a1-2)[Gal(a1-3)]Gal(b1-3)GlcNAc(b1-6)GalNAc
# Summary of the method: as §1
# [10] = target: Fuc(a1-2)[Gal(a1-3)]Gal(b1-4)Glc
# Summary of the method: as §1
# [11] = target: Fuc(a1-2)[Gal(a1-3)]Gal(b1-4)GlcNAc
# Summary of the method: as §1
# [12] = target: Fuc(a1-2)[Gal(a1-3)]Gal(b1-4)GlcNAc(b1-2)Man
# Summary of the method: as §1
# [13] = target: Fuc(a1-2)[Gal(a1-3)]Gal(b1-4)GlcNAc(b1-2)Man(a1-3)[Fuc(a1-2)[Gal(a1-3)]Gal(b1-4)GlcNAc(b1-2)Man(a1-6)]Man(b1-4)GlcNAc(b1-4)GlcNAc
# Summary of the method: as §1
# [14] = target: Fuc(a1-2)[Gal(a1-3)]Gal(b1-4)GlcNAc(b1-2)Man(a1-3)[Fuc(a1-2)[Gal(a1-3)]Gal(b1-4)GlcNAc(b1-2)Man(a1-6)]Man(b1-4)GlcNAc(b1-4)[Fuc(a1-6)]GlcNAc
# Summary of the method: as §1
# [15] = target: Fuc(a1-2)[Gal(a1-3)]Gal(b1-4)GlcNAc(b1-3)GalNAc
# Summary of the method: as §1
# [16] = target: Fuc(a1-2)[Gal(a1-3)]Gal(b1-4)GlcNAc(b1-3)[Fuc(a1-2)[Gal(a1-3)]Gal(b1-4)GlcNAc(b1-6)]GalNAc
# Summary of the method: as §1
# [17] = target: Fuc(a1-2)[Gal(a1-3)]Gal(b1-4)GlcNAc(b1-6)GalNAc
# Summary of the method: as §1
# [18] = target: Fuc(a1-2)[Gal(a1-3)]Gal(b1-4)[Fuc(a1-3)]Glc
# Summary of the method: as §1
# [19] = target: Fuc(a1-2)[Gal(a1-3)]Gal(b1-4)[Fuc(a1-3)]GlcNAc
# Summary of the method: as §1
# [20] = target: Fuc(a1-2)[Gal(a1-3)]Gal(b1-4)[Fuc(a1-3)]GlcNAc(b1-3)GalNAc
# Summary of the method: as §1
# [21] = target: Fuc(a1-2)[Gal(a1-4)]Gal(b1-4)GlcNAc
# Summary of the method: as §1
# [22] = target: Fuc(a1-2)[GalNAc(a1-3)]Gal
# Summary of the method: as §1
# [23] = target: Fuc(a1-2)[GalNAc(a1-3)]Gal(b1-3)GalNAc(a1-3)[Fuc(a1-2)]Gal(b1-4)GlcNAc
# Summary of the method: as §1
# [24] = target: Fuc(a1-2)[GalNAc(a1-3)]Gal(b1-3)GalNAc(b1-3)Gal(a1-4)Gal(b1-4)Glc
# Summary of the method: as §1
# [25] = target: Fuc(a1-2)[GalNAc(a1-3)]Gal(b1-3)GlcNAc
# Summary of the method: as §1
# [26] = target: Fuc(a1-2)[GalNAc(a1-3)]Gal(b1-3)GlcNAc(b1-2)Man(a1-3)[Fuc(a1-2)[GalNAc(a1-3)]Gal(b1-3)GlcNAc(b1-2)Man(a1-6)]Man(b1-4)GlcNAc(b1-4)GlcNAc
# Summary of the method: as §1
# [27] = target: Fuc(a1-2)[GalNAc(a1-3)]Gal(b1-3)GlcNAc(b1-2)Man(a1-3)[Fuc(a1-2)[GalNAc(a1-3)]Gal(b1-3)GlcNAc(b1-2)Man(a1-6)]Man(b1-4)GlcNAc(b1-4)[Fuc(a1-6)]GlcNAc
# Summary of the method: as §1
# [28] = target: Fuc(a1-2)[GalNAc(a1-3)]Gal(b1-3)GlcNAc(b1-3)GalNAc
# Summary of the method: as §1
# [29] = target: Fuc(a1-2)[GalNAc(a1-3)]Gal(b1-3)GlcNAc(b1-6)GalNAc
# Summary of the method: as §1
# [30] = target: Fuc(a1-2)[GalNAc(a1-3)]Gal(b1-4)Glc
# Summary of the method: as §1
# [31] = target: Fuc(a1-2)[GalNAc(a1-3)]Gal(b1-4)GlcNAc
# Summary of the method: as §1
# [32] = target: Fuc(a1-2)[GalNAc(a1-3)]Gal(b1-4)GlcNAc(b1-2)Man
# Summary of the method: as §1
# [33] = target: Fuc(a1-2)[GalNAc(a1-3)]Gal(b1-4)GlcNAc(b1-2)Man(a1-3)[Fuc(a1-2)[GalNAc(a1-3)]Gal(b1-4)GlcNAc(b1-2)Man(a1-6)]Man(b1-4)GlcNAc(b1-4)GlcNAc
# Summary of the method: as §1
# [34] = target: Fuc(a1-2)[GalNAc(a1-3)]Gal(b1-4)GlcNAc(b1-2)Man(a1-3)[Fuc(a1-2)[GalNAc(a1-3)]Gal(b1-4)GlcNAc(b1-2)Man(a1-6)]Man(b1-4)GlcNAc(b1-4)[Fuc(a1-6)]GlcNAc
# Summary of the method: as §1
# [35] = target: Fuc(a1-2)[GalNAc(a1-3)]Gal(b1-4)GlcNAc(b1-3)Gal(b1-4)GlcNAc
# Summary of the method: as §1
# [36] = target: Fuc(a1-2)[GalNAc(a1-3)]Gal(b1-4)GlcNAc(b1-3)Gal(b1-4)GlcNAc(b1-3)Gal(b1-4)GlcNAc
# Summary of the method: as §1
# [37] = target: Fuc(a1-2)[GalNAc(a1-3)]Gal(b1-4)GlcNAc(b1-3)GalNAc
# Summary of the method: as §1
# [38] = target: Fuc(a1-2)[GalNAc(a1-3)]Gal(b1-4)GlcNAc(b1-3)[Fuc(a1-2)[GalNAc(a1-3)]Gal(b1-4)GlcNAc(b1-6)]GalNAc
# Summary of the method: as §1
# [39] = target: Fuc(a1-2)[GalNAc(a1-3)]Gal(b1-4)GlcNAc(b1-6)GalNAc
# Summary of the method: as §1
# [40] = target: Fuc(a1-2)[GalNAc(a1-3)]Gal(b1-4)[Fuc(a1-3)]GlcNAc
# Summary of the method: as §1
# [41] = target: Fuc(a1-2)[GalNAc(a1-3)]Gal(b1-4)[Fuc(a1-3)]GlcNAc(b1-3)GalNAc
# Summary of the method: as §1
# [42] = target: Fuc(a1-2)[GalNAc(a1-4)]Gal(b1-4)GlcNAc
# Summary of the method: as §1
# [43] = target: Fuc(a1-2)[GalNAc(b1-3)]Gal
# Summary of the method: as §1
binder,measurement,setting,value
B1,glycan array binding signal (z-score),[1],-0.166
same,glycan array binding signal (z-score),Fuc(a1-2)Gal6S(b1-4)Glc,-1.97
same,glycan array binding signal (z-score),[2],-1.55
same,glycan array binding signal (z-score),Fuc(a1-2)[Gal(a1-3)]Gal,-0.64
same,glycan array binding signal (z-score),[3],0.68
same,glycan array binding signal (z-score),[4],-0.456
same,glycan array binding signal (z-score),[5],-0.399
same,glycan array binding signal (z-score),[6],0.143
same,glycan array binding signal (z-score),[7],1.41
same,glycan array binding signal (z-score),[8],-0.195
same,glycan array binding signal (z-score),[9],-1.47
same,glycan array binding signal (z-score),[10],0.47
same,glycan array binding signal (z-score),[11],-0.297
same,glycan array binding signal (z-score),[12],-0.093
same,glycan array binding signal (z-score),[13],0.479
same,glycan array binding signal (z-score),[14],-0.003
same,glycan array binding signal (z-score),[15],-1.3
same,glycan array binding signal (z-score),[16],0.108
same,glycan array binding signal (z-score),[17],-1.41
same,glycan array binding signal (z-score),[18],-0.915
same,glycan array binding signal (z-score),[19],1.42
same,glycan array binding signal (z-score),[20],0.158
same,glycan array binding signal (z-score),[21],-0.177
same,glycan array binding signal (z-score),[22],-0.243
same,glycan array binding signal (z-score),[23],-0.976
same,glycan array binding signal (z-score),[24],0.017
same,glycan array binding signal (z-score),[25],-0.908
same,glycan array binding signal (z-score),[26],0.268
same,glycan array binding signal (z-score),[27],0.472
same,glycan array binding signal (z-score),[28],1.47
same,glycan array binding signal (z-score),[29],1.04
same,glycan array binding signal (z-score),[30],-0.359
same,glycan array binding signal (z-score),[31],0.044
same,glycan array binding signal (z-score),[32],-0.359
same,glycan array binding signal (z-score),[33],-1.25
same,glycan array binding signal (z-score),[34],-0.09
same,glycan array binding signal (z-score),[35],-1.35
same,glycan array binding signal (z-score),[36],0.691
same,glycan array binding signal (z-score),[37],-0.601
same,glycan array binding signal (z-score),[38],-1.25
same,glycan array binding signal (z-score),[39],-0.35
same,glycan array binding signal (z-score),[40],-1.15
same,glycan array binding signal (z-score),[41],-0.176
same,glycan array binding signal (z-score),[42],-0.738
same,glycan array binding signal (z-score),[43],0.041

# Part of the list above, as tab-separated lines:
binder	measurement	setting	value
B1	glycan array binding signal (z-score)	[12]	-0.093
same	glycan array binding signal (z-score)	[16]	0.108
same	glycan array binding signal (z-score)	[34]	-0.09
